# According to paper PMC5448152:
# Amino acid sequences for entries named in this document (tags omitted).
# UniProt O77059: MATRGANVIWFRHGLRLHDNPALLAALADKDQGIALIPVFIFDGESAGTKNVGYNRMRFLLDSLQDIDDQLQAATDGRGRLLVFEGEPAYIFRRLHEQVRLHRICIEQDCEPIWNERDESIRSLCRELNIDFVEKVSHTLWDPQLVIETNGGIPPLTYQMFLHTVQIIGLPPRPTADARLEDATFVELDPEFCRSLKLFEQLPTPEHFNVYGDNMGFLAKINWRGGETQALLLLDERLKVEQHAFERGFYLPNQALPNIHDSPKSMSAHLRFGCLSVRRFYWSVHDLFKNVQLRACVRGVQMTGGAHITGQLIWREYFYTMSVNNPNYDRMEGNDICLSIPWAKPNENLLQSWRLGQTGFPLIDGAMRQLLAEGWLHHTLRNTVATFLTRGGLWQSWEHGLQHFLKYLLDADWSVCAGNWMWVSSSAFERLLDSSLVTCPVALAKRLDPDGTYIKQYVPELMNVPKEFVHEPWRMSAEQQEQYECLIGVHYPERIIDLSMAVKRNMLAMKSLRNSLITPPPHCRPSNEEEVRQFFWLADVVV
# Results are given in words; binding and its absence hold for the method and conditions named. Binding seen in cells or lysates may run through a third protein. Some results given as binding are weak or reduced against the parent protein; the word gives no strength.
# B1: BRUCHPILOT (BRP), 170 kDa isoform, endogenous (protein, UniProt A0A0B4K7K9-3 1-1397)
# chain: MDNAYVYYKLDEFRLEIQRRDQEILAMAAKMKTLEEQHQRHIAVLKESLCAKEEHYNMLQTDVEEMRARLEEKNRLIEKKTQGTLQTVQERNRLTSELTELKDHMDIKDRKISVLQRKIENLEDLLKEKDNQVDMARARLSAMQAHHSSSEGALTSLEEAIGDKEKQMAQLRDQRDRAEHEKQEERDLHEREVADYKIKLRAAESEVEKLQTRLERAVTERERLEIKLEASQSELGKSKAELEKATCEMGRSSADWESTKQRIARLELENERLKHDLERSQMQLEEQTTLHKTTFGRTTMTTSQELDRAQERADKASAELRRTQAELRVTQSDAERAREEAAALQEKLEKSQGEVYRLKAKLENAQGEQESLRQELEKAQSGVSRIHADRDRAFSEVEKIKEEMERTQATLGKSQLQHEKLQNSLDKAQNEVDHLQDKLDKACTENRRLVLEKEKLTYDYDNLQSQLDKALGQAARMQKERETLSLDTDRIREKLEKTQMERDDAVTEVEILKEKLDKALYASQKLIDEKDTSNKEFEKMLEKYDRAQNEIYRLQSRCDTAEADRARLEVEAERSGLAASKAREDLRKLQDESTRLQEACDRAALQLSRAKECEDNARSELEHSRDRFDKLQTDIRRAQGEKEHFQSELERVTYELERAHAAQTKASASVEAAKEEAAHYAVELEKMRDRYEKSQVELRKLQDTDTFGRETRRLKEENERLREKLDKTLMELETIRGKSQYESESFEKYKDKYEKIEMEVQNMESKLHETSLQLELSKGEVAKMLANQEKQRSELERAHIEREKARDKHEKLLKEVDRLRLQQSSVSPGDPVRASTSSSSALSAGERQEIDRLRDRLEKALQSRDATELEAGRLAKELEKAQMHLAKQQENTESTRIEFERMGAELGRLHDRLEKAEAEREALRQANRSGGAGAAPHPQLEKHVQKLESDVKQLAMEREQLVLQLEKSQEILMNFQKELQNAEAELQKTREENRKLRNGHQVPPVAAPPAGPSPAEFQAMQKEIQTLQQKLQESERALQAAGPQQAQAAAAAGASREEIEQWRKVIEQEKSRADMADKAAQEMHKRIQLMDQHIKDQHAQMQKMQQQMQQQQQAAQQAVQQAAQQQQSAAGAGGADPKELEKVRGELQAACTERDRFQQQLELLVTELEKSKMSNQEQAKQLQTAQQQVQQLQQQVQQLQQQMQQLQQAASAGAGATDVQRQQLEQQQKQLEEVRKQIDNQAKATEGERKIIDEQRKQIDAKRKDIEEKEKKMAEFDVQLRKRKEQMDQLEKSLQTQGGGAAAAGELNKKLMDTQRQLEACVKELQNTKEEHKKAATETERLLQLVQMSQEEQNAKEKTIMDLQQALKIAQAKVKQAQTQQQQQQDAGPAGFLKSFF
# Molecular target: hemagglutinin (HA) tagged CRY (Drosophila melanogaster) (UniProt O77059)
# Experiment: co-IP; HACRY precipitated with α-HA antibodies from whole head extracts of tim-GAL4 > HACRY flies collected at ZT24 (dark) and ZT24 + 15 min light; Western blot probed with nc82; stronger under light
binder,measurement,value
B1,binding,binds
